{
  "source": "PubChem BioAssay AID485314",
  "about": "(National Center for Advancing Translational Sciences (NCATS), 2010)",
  "note": "In all, about 340,000 compounds went through this assay and about 4,500 (1.3%) were called active. The shares of active, inactive and inconclusive entries below differ from those in the screen. Calls come from the whole dose curve; as a rule, active = well fitted inhibition curve with a large enough effect; inconclusive = small, poorly fitted or top-dose-only effect, or another doubt; inactive = no such curve, though single readings can be large or run the other way. Potencies beside an inconclusive call are fits to weak or partial responses and may not hold up. % is set by controls: 0 for no effect and ±100 for the full control effect; potency is the fitted concentration of half-maximal effect.",
  "data": [
    {"target": "DNA polymerase beta (Homo sapiens) (UniProt P06746)", "assay": "qHTS Assay for Inhibitors of DNA Polymerase Beta", "conditions": "Pol beta primer extension/strand displacement, fluorescence kinetic; activity change, negative = inhibition: at 114 µM (top of the series)", "outline": "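Reaction started by 50 nM substrate onto compound-treated Pol beta (10 nM, 15 min preincubation, room temperature); plates read at 0 min and 10 min. Normalized concentration-effect data fitted by four-parameter Hill equation.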", "values": [
      {"smiles": "Cc1c(CCC(=O)O)c(=O)oc2c(C)c(OCc3ccccc3Cl)ccc12", "Potency": "active: 12.6 µM"},
      {"smiles": "Nc1ccc(N2CCOCC2)c2nonc12", "Potency": "inconclusive: 89.1 µM [inhibitor, single point]"},
      {"smiles": "COc1ccc(OC)c(C2=NS(=O)(=O)N(C)C(C(=O)Nc3ccc(C(C)=O)cc3)=C2)c1", "Potency": "inconclusive: 56.2 µM [inhibitor, partial curve]"},
      {"smiles": "CN(C(=O)Nc1ccccc1)C1CCCc2ccccc21", "note": "(configuration not stated)", "Potency": "inactive"},
      {"smiles": "COc1ccc(C(=O)/C=C/c2ccc(OCc3ccccc3)cc2)cc1CSCC(=O)O", "Potency": "inactive"},
      {"smiles": "O=C(CSc1ccccc1)N1CCc2c([nH]c3ccccc23)C1c1ccc(Cl)cc1", "note": "(configuration not stated)", "Potency": "inconclusive: 79.4 µM [inhibitor, single point]"},
      {"smiles": "O=C(O)C1CC(O)CN1C(=O)c1ccco1", "note": "(configuration not stated)", "Potency": "inconclusive: 0.708 µM [inhibitor, full curve, poor fit]"},
      {"smiles": "Cc1nc(N2CCCC2)ncc1C(=O)NCc1ccc(Cl)cc1", "Potency": "inactive"},
      {"smiles": "O=C(NCc1ccc(Cl)cc1)c1cc2ccc3cccnc3c2[nH]1", "Potency": "inconclusive: 20 µM [inhibitor, full curve]"},
      {"smiles": "COc1cc(OC)cc(-c2nc(=S)n3ccsc3n2)c1", "Potency": "inconclusive: 3.55 µM [inhibitor, partial curve]"},
      {"smiles": "CCOC(=O)C[n+]1c(C)sc2ccc(OC)cc21", "Potency": "inactive"},
      {"smiles": "Cn1cnnc1SCC(=O)c1cc2ccccc2oc1=O", "Potency": "inconclusive: 11.2 µM [inhibitor, full curve]"},
      {"smiles": "CCCCCC#CCC#CCC#CCC#CCCCC(=O)O", "Potency": "active: 1.12 µM"},
      {"smiles": "COc1cc(/C=N/O)ccc1OCc1ccc(C(=O)O)cc1", "Potency": "inconclusive: 89.1 µM [inhibitor, single point]"},
      {"smiles": "Cc1nc(Nc2nc3ccccc3o2)nc2c1CCC2", "Potency": "inactive"},
      {"smiles": "O=C1Cc2ccccc2C(=O)N1OCc1ccc(Cl)cc1", "Potency": "inconclusive: 0.141 µM [inhibitor, full curve, poor fit]"},
      {"smiles": "C/C(=N\\NC(=O)c1ccc(CSc2nc(C)cc(C)n2)cc1)c1ccco1", "Potency": "active: 56.2 µM"},
      {"smiles": "CC(=O)Nc1ccc(Sc2ccccc2C(=O)Nc2ccc(F)cc2)cn1", "Potency": "inactive"},
      {"smiles": "O=C(Nc1ccccn1)c1cc(-c2cccnc2)nc2ccc(Br)cc12", "Potency": "inconclusive: 3.55 µM [inhibitor, full curve]"},
      {"smiles": "CCN(CC)CCn1c2ccccc2c2cnc(N=CN(C)C)c(C#N)c21", "Potency": "active: 20 µM"},
      {"smiles": "CCOc1cc(/C=N/NC(=O)C(=O)N2CCCC2)ccc1O", "Potency": "inconclusive: 89.1 µM [inhibitor, single point]"},
      {"smiles": "CS(=O)(=O)C1=NSC2=NC(=O)/C(=C\\c3ccc(OS(=O)(=O)c4ccccc4)cc3)C(=N)N21", "Potency": "inconclusive: 0.224 µM [inhibitor, full curve, poor fit]"},
      {"smiles": "CCC(C)NC(=O)CSc1n[nH]c(-c2cc(Cl)ccc2OC)n1", "note": "(configuration not stated)", "Potency": "inconclusive: 0.631 µM [inhibitor, full curve]"},
      {"smiles": "CN(C)CCCNC(=O)c1ccc(=O)[nH]n1", "Potency": "inconclusive: 89.1 µM [inhibitor, single point]"},
      {"smiles": "Cc1cccc2nc(C(F)(F)F)nc(=O)n12", "Potency": "inconclusive: 4.47 µM [inhibitor, full curve, poor fit]"},
      {"smiles": "O=C(NCc1ccncc1)c1ccc(N2CCCC2)c([N+](=O)[O-])c1", "Potency": "inconclusive: 89.1 µM [inhibitor, single point]"},
      {"smiles": "O=C(OCC(=O)N1CCN(C(=O)c2ccco2)CC1)c1cc(-c2ccco2)nc2ccccc12", "Potency": "active: 3.16 µM"},
      {"smiles": "CCOc1ccccc1CNC(c1ccccc1)c1ccccc1", "Potency": "inconclusive: 79.4 µM [inhibitor, single point]"},
      {"smiles": "N#Cc1nc(Cc2cccc3ccccc23)oc1NCc1ccco1", "Potency": "inconclusive: 35.5 µM [inhibitor, partial curve, poor fit]"},
      {"smiles": "O=C(NCCN1CCN(c2ccccc2)CC1)c1cccc(Cl)c1", "Potency": "inconclusive: 39.8 µM [inhibitor, single point]"},
      {"smiles": "CC1=C(C(=O)NCc2ccc(Cl)cc2)C2(CCCCCC2)OC1=O", "Potency": "inactive"},
      {"smiles": "S=c1[nH]nc(-c2cc(-c3ccsc3)n[nH]2)n1-c1ccccc1", "Potency": "inactive"},
      {"smiles": "COc1ccc(/C=N\\NC(=O)c2sccc2C)cc1Cn1nc(C)cc1C", "Potency": "inconclusive: 1.58 µM [inhibitor, full curve]"},
      {"smiles": "Cc1ccccc1NC(=O)CSc1nnc(NC(=O)C2CC2)s1", "Potency": "inactive"},
      {"smiles": "Cc1nc2nc(SCC(=O)NCc3ccccc3)nn2c(C)c1Cc1ccccc1", "Potency": "inconclusive: 79.4 µM [inhibitor, single point]"},
      {"smiles": "Cn1ccsc1=NC(=O)c1ccc(=O)[nH]c1", "Potency": "inactive"},
      {"smiles": "Cc1ccc(OCC(=O)Nc2sc3c(c2C#N)CC(C)(C)NC3(C)C)cc1", "Potency": "inactive"},
      {"smiles": "COc1cc(CN2CCN(C(=O)c3ccc(-c4ccccc4)cc3)CC2)cc(OC)c1OC", "Potency": "inconclusive: 2 µM [inhibitor, full curve, poor fit]"},
      {"smiles": "O=C(CCCn1c2ccccc2c(=O)c2ccccc21)Nc1ccc(F)cc1Cl", "activity change, negative = inhibition": "inconclusive: -34% [inhibitor]"},
      {"smiles": "O=[N+]([O-])c1ccc(C=Nc2cccc3ccccc23)s1", "Potency": "inconclusive: 3.55 µM [inhibitor, full curve]"},
      {"smiles": "CCC(SC1=Nc2ccccc2C2=NC(CC(C)C)C(=O)N12)C(=O)Nc1ccc2c(c1)OCO2", "note": "(configuration not stated)", "Potency": "inconclusive: 25.1 µM [inhibitor, full curve]"},
      {"smiles": "Cc1cc(C)n2c(Br)c(CSc3nc4ccccc4s3)nc2n1", "Potency": "inconclusive: 39.8 µM [inhibitor, single point]"},
      {"smiles": "Cc1ccccc1-n1nc2c(c1NC(=O)c1ccc(Br)o1)CSC2", "Potency": "inconclusive: 15.8 µM [inhibitor, full curve]"},
      {"smiles": "CC(C)c1nnc(NC(=O)c2nc(S(=O)(=O)Cc3ccccc3F)ncc2Cl)s1", "Potency": "inactive"},
      {"smiles": "COc1ccccc1CNC(=O)CCC1N=C2c3ccccc3N=C(SCC(=O)NCCc3ccc(OC)c(OC)c3)N2C1=O", "note": "(configuration not stated)", "Potency": "inconclusive: 100 µM [inhibitor, single point]"},
      {"smiles": "Cc1onc(-c2ccccc2Cl)c1C(=O)NCCn1c(C)cc2ccccc21", "Potency": "inconclusive: 0.316 µM [inhibitor, full curve, poor fit]"},
      {"smiles": "COc1ccc(-c2noc(-c3ccc(NC(C)c4ccccc4)c([N+](=O)[O-])c3)n2)cc1OC", "note": "(configuration not stated)", "Potency": "active: 31.6 µM"}
    ]}
  ]
}
